Results as given in article PMC12541299.
Results are given in words; binding and its absence hold for the method and conditions named. In cells and extracts the contact can be indirect.

Protein sequences, listed by entry. Tags and fused reporters are not part of them.
UniProt Q14160: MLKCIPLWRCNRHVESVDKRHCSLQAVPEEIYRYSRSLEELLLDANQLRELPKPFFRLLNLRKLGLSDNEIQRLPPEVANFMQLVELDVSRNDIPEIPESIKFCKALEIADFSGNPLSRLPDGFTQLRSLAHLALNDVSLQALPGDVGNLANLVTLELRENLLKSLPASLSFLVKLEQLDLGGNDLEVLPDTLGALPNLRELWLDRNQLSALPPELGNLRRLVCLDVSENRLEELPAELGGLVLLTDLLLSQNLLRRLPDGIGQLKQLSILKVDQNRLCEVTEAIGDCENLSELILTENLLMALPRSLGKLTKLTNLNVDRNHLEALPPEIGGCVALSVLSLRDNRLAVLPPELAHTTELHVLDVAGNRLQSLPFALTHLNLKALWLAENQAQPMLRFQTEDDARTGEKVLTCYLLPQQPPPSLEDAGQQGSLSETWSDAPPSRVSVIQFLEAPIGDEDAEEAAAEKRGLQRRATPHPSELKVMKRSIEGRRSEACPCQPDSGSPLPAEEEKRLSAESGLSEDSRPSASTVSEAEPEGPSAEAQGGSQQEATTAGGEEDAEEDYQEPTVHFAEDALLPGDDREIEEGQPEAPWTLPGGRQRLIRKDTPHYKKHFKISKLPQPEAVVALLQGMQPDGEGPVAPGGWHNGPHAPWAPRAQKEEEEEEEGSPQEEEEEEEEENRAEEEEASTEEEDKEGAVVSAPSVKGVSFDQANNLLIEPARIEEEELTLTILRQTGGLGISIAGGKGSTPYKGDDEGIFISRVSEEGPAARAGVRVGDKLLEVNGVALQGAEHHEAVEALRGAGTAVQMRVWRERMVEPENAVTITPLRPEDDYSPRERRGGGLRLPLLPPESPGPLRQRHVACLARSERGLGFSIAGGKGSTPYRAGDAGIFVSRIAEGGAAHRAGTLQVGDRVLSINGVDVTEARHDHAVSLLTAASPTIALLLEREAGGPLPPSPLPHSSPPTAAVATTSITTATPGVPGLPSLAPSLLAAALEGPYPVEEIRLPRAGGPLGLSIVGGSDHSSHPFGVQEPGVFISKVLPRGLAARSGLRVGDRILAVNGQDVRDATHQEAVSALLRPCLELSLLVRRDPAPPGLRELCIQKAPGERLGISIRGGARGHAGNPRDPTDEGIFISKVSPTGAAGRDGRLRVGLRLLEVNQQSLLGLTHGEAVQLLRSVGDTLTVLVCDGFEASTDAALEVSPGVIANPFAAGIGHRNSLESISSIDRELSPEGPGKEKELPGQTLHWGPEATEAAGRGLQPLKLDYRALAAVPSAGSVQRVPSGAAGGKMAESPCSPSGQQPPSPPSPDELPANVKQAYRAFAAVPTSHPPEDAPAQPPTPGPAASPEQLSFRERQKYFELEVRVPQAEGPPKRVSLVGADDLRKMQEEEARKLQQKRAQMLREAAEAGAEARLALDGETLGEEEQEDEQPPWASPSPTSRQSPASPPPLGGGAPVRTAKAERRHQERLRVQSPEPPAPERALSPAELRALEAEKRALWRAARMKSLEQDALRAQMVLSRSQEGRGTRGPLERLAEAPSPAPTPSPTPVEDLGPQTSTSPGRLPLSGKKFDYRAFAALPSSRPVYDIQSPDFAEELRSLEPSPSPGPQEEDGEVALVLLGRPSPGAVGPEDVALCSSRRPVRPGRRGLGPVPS

Biological target: KRAS^Q61L (as used in the immunoprecipitation) (human) (UniProt P01116)
Test: co-IP; immunoprecipitation to validate the TurboID hits; cells, bait and conditions not told (Supplementary Fig. S2G and S2H)

SCRIB (from UniProt Q14160 1-1655)
binding: no binding
